Laboratory results published in the supplement of paper PMC10849652.
This is one part of the list.

Amino acid sequences for entries named in this document (tags omitted). A change or cut given only in a name is not applied to a line headed by its entry.
UniProt Q6NUK1: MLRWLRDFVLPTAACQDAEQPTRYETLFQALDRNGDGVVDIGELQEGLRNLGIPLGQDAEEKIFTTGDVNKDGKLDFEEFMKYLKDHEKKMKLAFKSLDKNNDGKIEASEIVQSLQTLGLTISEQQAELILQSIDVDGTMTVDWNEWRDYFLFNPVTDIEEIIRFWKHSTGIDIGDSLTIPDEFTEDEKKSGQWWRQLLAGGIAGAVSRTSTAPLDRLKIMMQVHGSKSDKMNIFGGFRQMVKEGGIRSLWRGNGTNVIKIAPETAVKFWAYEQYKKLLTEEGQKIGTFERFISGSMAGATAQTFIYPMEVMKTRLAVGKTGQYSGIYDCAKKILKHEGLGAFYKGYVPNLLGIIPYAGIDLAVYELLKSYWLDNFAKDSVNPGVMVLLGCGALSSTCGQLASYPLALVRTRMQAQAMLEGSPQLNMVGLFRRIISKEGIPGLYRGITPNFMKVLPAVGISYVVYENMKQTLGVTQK
UniProt O43772: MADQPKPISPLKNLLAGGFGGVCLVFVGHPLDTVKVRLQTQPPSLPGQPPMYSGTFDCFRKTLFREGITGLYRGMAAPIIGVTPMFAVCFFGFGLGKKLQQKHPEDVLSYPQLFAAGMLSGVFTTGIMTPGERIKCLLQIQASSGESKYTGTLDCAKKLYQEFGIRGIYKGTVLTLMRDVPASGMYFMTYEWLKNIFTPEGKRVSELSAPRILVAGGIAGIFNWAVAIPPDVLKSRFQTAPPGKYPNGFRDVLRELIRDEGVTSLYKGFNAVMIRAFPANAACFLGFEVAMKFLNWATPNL
UniProt Q9Y6M5: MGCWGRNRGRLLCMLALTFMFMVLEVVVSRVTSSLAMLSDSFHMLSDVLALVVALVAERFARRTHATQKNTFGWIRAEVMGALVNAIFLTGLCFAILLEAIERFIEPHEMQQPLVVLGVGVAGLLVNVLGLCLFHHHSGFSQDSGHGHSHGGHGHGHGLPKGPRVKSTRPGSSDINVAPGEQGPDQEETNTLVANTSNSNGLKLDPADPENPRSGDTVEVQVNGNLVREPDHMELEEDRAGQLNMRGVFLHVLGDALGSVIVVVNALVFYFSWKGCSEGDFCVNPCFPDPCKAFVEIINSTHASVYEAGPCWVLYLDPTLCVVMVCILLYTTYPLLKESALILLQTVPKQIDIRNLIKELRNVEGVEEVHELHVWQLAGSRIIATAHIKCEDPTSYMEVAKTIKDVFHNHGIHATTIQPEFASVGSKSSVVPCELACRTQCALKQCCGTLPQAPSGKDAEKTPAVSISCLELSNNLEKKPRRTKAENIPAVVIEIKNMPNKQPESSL
UniProt P08195: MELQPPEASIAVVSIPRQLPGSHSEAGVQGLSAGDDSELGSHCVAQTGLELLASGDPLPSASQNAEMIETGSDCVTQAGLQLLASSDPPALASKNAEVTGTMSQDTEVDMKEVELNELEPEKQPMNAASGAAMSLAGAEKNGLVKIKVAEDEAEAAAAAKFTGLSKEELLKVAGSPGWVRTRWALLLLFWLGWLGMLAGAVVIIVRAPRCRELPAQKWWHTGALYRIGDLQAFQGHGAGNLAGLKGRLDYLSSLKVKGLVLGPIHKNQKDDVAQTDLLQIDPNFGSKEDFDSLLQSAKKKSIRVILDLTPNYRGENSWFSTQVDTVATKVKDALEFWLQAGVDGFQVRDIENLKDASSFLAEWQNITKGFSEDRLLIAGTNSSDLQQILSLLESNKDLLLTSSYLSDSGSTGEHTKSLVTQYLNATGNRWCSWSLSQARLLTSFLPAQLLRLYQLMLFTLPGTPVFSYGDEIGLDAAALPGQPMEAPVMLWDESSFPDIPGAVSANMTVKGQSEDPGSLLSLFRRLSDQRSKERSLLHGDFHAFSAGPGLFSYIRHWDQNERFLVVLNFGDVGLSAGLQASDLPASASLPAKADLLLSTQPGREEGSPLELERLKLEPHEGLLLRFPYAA
UniProt P05141: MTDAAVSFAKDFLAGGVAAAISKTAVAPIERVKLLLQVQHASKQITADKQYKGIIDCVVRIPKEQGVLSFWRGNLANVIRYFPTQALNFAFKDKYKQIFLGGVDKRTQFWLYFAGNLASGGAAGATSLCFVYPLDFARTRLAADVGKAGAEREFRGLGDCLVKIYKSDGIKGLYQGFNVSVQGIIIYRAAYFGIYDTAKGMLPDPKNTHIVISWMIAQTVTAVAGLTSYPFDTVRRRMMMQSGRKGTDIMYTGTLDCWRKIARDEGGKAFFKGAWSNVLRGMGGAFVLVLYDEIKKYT
UniProt Q96AG3: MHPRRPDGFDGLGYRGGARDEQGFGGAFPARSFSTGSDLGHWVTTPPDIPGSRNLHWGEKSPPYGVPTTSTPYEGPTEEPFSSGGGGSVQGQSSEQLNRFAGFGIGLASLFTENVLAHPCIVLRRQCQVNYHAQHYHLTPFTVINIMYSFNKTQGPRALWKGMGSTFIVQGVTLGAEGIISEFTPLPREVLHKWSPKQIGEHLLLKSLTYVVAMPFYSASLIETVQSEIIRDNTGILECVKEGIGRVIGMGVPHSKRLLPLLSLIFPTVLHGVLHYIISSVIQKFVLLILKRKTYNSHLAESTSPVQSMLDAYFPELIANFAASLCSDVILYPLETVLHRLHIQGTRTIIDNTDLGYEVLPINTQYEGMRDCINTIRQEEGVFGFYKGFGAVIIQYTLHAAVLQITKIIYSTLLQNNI
UniProt Q96EP9: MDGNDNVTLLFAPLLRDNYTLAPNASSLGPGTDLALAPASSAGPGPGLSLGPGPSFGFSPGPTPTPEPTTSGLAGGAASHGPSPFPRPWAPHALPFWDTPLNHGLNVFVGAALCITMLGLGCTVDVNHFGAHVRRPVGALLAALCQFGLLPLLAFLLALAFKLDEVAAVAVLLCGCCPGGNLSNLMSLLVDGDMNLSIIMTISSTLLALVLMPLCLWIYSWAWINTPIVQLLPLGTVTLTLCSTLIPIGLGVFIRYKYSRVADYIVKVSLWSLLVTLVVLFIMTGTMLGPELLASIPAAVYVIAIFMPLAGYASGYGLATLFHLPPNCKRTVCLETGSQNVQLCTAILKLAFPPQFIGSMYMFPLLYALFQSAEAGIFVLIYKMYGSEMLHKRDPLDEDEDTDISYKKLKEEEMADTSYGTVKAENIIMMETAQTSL
UniProt Q01650: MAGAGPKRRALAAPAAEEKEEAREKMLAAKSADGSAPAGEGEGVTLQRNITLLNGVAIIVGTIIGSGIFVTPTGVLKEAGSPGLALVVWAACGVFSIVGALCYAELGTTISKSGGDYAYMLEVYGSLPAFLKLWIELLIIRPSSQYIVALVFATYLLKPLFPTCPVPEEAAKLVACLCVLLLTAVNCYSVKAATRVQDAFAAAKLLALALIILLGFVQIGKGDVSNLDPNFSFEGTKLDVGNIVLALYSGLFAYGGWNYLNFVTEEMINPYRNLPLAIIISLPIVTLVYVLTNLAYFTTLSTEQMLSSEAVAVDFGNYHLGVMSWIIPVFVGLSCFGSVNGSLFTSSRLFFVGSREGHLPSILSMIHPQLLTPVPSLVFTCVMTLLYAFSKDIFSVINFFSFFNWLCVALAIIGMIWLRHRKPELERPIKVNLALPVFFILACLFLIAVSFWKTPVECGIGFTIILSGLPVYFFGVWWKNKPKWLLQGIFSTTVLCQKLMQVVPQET
UniProt P78381: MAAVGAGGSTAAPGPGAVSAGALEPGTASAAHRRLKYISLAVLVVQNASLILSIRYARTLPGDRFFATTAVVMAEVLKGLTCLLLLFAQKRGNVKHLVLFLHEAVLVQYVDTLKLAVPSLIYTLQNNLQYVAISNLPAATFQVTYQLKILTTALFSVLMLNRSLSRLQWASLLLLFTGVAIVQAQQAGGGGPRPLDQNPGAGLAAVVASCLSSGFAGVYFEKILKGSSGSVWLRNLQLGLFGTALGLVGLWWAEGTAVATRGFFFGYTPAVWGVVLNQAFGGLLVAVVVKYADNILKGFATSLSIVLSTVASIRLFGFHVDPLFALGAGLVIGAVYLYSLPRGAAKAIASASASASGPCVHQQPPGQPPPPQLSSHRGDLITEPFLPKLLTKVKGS
UniProt Q8WUX1, whole entry, looked up: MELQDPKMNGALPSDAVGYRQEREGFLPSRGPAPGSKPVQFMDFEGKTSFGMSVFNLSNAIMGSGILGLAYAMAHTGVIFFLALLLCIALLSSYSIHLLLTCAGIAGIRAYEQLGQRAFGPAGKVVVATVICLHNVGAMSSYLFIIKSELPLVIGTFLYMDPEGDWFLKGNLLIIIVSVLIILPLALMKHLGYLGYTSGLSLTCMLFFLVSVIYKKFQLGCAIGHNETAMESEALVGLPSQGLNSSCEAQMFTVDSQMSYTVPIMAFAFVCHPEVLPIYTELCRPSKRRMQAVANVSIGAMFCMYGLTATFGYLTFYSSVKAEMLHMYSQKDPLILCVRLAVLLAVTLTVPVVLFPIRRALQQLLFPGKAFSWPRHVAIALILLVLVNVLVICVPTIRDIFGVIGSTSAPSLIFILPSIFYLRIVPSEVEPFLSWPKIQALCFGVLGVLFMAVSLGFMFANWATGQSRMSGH
UniProt P02730: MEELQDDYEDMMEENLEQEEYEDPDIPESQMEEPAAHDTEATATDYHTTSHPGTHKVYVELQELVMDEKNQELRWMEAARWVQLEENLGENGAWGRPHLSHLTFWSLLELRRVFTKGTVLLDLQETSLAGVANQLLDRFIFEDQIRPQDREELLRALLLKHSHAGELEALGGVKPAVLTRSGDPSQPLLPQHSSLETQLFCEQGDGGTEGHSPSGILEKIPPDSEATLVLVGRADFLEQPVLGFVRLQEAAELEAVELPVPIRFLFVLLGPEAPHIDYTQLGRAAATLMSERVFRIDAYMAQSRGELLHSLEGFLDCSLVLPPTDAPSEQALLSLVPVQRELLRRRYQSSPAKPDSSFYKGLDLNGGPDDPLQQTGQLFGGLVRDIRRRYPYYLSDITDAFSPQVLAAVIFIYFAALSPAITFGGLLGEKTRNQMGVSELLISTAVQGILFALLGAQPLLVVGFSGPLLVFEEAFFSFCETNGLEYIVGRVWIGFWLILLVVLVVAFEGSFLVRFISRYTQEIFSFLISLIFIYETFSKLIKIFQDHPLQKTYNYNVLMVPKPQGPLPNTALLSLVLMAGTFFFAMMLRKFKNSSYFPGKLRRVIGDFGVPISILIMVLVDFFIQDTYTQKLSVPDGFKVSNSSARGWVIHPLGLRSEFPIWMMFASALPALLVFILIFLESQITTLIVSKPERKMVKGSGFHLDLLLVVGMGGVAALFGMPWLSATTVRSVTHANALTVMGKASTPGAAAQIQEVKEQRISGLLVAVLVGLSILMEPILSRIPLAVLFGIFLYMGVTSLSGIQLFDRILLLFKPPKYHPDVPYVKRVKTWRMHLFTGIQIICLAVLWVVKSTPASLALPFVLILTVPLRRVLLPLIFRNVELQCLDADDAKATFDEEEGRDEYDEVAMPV
UniProt O43808: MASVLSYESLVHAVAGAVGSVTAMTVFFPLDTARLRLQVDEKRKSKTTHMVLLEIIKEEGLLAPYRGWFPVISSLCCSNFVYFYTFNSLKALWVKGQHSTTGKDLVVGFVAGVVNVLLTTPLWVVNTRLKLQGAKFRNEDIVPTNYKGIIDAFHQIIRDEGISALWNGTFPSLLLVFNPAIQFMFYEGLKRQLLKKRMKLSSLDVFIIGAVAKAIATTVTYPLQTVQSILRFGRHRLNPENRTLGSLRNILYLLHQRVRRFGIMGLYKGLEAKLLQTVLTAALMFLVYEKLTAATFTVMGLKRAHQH
UniProt P53007, whole entry, looked up: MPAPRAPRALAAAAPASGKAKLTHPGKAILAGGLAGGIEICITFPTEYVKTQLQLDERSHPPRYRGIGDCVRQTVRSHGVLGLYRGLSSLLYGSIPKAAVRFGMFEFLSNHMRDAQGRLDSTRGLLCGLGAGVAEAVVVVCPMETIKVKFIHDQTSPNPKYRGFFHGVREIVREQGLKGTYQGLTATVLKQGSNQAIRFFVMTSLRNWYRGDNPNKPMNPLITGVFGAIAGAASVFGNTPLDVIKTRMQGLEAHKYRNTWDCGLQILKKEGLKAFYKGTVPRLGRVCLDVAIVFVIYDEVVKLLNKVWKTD
UniProt Q9NYZ2: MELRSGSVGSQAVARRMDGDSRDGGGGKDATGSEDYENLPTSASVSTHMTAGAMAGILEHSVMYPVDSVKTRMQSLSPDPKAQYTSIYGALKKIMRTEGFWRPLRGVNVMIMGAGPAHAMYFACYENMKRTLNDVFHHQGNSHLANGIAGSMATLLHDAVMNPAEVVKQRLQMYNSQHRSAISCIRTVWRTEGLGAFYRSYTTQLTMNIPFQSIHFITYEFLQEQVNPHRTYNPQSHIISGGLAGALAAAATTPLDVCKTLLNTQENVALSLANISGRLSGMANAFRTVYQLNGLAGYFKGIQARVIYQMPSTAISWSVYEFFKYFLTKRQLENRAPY

Tests used:
Assay in all cases: log2 fold change, soluble protein after heating vs DMSO (PISA); higher = thermal stabilisation; K562 cells, 10 uM, 30 min; active = over 0.2 and 3.5 SD of the protein, either way, in both replicates (recomputed)
[1] = compound: CS(=O)(=O)c1ccc(-c2cnc(N)c(C(=O)Nc3ccccc3)n2)cc1
Summary of the method: (§1)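 Aliquots of K562 cells (2×10^6 cells/mL) treated with 10 μM compound for 30 min were heated for 3 min over 48°C-58°C. After pooling and extraction in PBS with 0.5% NP-40 at 4°C, soluble protein from a 21,000xg, 90 min spin was quantified by TMTpro 16plex LC-MS/MS with channel sums equalised. Thermal stability is expressed against control samples, from duplicates, as a log2 fold change.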

crizotinib = compound: C[C@@H](Oc1cc(-c2cnn(C3CCNCC3)c2)cnc1N)c1c(Cl)ccc(F)c1Cl [crizotinib]
Summary of the method: as §1

[2] = compound: C[C@@H]1COCCN1C2=NC(=NC(=C2)C3(CC3)S(=O)(=O)C)C4=C5C=CNC5=CC=C4
Summary of the method: as §1

[3] = compound: C[C@H](C1=CC=C(C=C1)C(=O)NC2=C3C=CNC3=NC=C2)N
Summary of the method: as §1

duvelisib = compound: C[C@H](Nc1ncnc2nc[nH]c12)c1cc2cccc(Cl)c2c(=O)n1-c1ccccc1 [duvelisib]
Summary of the method: as §1

gandotinib = compound: Cc1cc(Nc2cc(CN3CCOCC3)c3nc(C)c(Cc4ccc(Cl)cc4F)n3n2)n[nH]1 [gandotinib]
Summary of the method: as §1

tozasertib = compound: Cc1cc(Nc2cc(N3CCN(C)CC3)nc(Sc3ccc(NC(=O)C4CC4)cc3)n2)n[nH]1 [tozasertib]
Summary of the method: as §1

[4] = compound: Cc1cc(SCc2sc(-c3ccc(C(F)(F)F)cc3)nc2C)ccc1OCC(=O)O
Summary of the method: as §1

doramapimod = compound: Cc1ccc(-n2nc(C(C)(C)C)cc2NC(=O)Nc2ccc(OCCN3CCOCC3)c3ccccc23)cc1 [doramapimod]
Summary of the method: as §1

ispinesib = compound: Cc1ccc(C(=O)N(CCCN)[C@@H](c2nc3cc(Cl)ccc3c(=O)n2Cc2ccccc2)C(C)C)cc1 [ispinesib]
Summary of the method: as §1

bafetinib = compound: Cc1ccc(NC(=O)c2ccc(CN3CC[C@H](N(C)C)C3)c(C(F)(F)F)c2)cc1Nc1nccc(-c2cncnc2)n1 [bafetinib]
Summary of the method: as §1

[5] = compound: Cc1cccc(CC(=O)N2CCc3c2ccc(-c2cn(C)c4ncnc(N)c24)c3F)n1
Summary of the method: as §1

nilotinib = compound: Cc1cn(-c2cc(NC(=O)c3ccc(C)c(Nc4nccc(-c5cccnc5)n4)c3)cc(C(F)(F)F)c2)cn1 [nilotinib]
Summary of the method: as §1

[6] = compound: Cc1nc(Nc2n[nH]c3c2CN(C(=O)N[C@H](CN(C)C)c2ccccc2)C3(C)C)c2sccc2n1
Summary of the method: as §1

dasatinib = compound: Cc1nc(Nc2ncc(C(=O)Nc3c(C)cccc3Cl)s2)cc(N2CCN(CCO)CC2)n1 [dasatinib]
Summary of the method: as §1

[7] = compound: Cc1ncc(-c2ccnc(Nc3ccc(S(C)(=O)=O)cc3)n2)n1C(C)C
Summary of the method: as §1

[8] = compound: Cn1cc(-c2ccc3c(c2)CCN3C(=O)Cc2cccc(C(F)(F)F)c2)c2c(N)ncnc21
Summary of the method: as §1

[9] = compound: Cn1cc(-c2ccc3nnc(C(F)(F)c4ccc5ncccc5c4)n3n2)cn1
Summary of the method: as §1

tipifarnib = compound: Cn1cncc1[C@@](N)(c1ccc(Cl)cc1)c1ccc2c(c1)c(-c1cccc(Cl)c1)cc(=O)n2C [tipifarnib]
Summary of the method: as §1

mubritinib = compound: FC(F)(F)c1ccc(/C=C/c2nc(COc3ccc(CCCCn4ccnn4)cc3)co2)cc1 [mubritinib]
Summary of the method: as §1

Measured: log2 fold change

SLC25A24 (UniProt Q6NUK1)
inactive: [1] 0.024 | crizotinib 0.074 | [2] 0.052 | [3] -0.041 | duvelisib -0.005 | gandotinib 0.024 | tozasertib -0.001 | [4] -0.052 | doramapimod -0.024 | ispinesib 0.008 | bafetinib -0.058 | [5] 0.012 | nilotinib -0.018 | [6] 0.016 | dasatinib 0.036 | [7] -0.03 | [8] 0.02 | [9] 0.035 | tipifarnib 0.046 | mubritinib 0.03

SLC25A20 (UniProt O43772)
inactive: [1] -0.004 | crizotinib 0.023 | [2] 0.021 | [3] -0.127 | duvelisib 0.039 | gandotinib -0.044 | tozasertib -0.039 | [4] -0.089 | doramapimod -0.024 | ispinesib -0.037 | bafetinib -0.059 | [5] 0.027 | nilotinib -0.016 | [6] 0.015 | dasatinib 0.008 | [7] -0.039 | [8] 0.011 | [9] 0.068 | tipifarnib -0.046 | mubritinib 0.032

SLC25A31 (UniProt Q9H0C2)
inactive: [1] -0.038 | crizotinib 0.057 | [2] -0.02 | [3] -0.107 | duvelisib 0.004 | gandotinib -0.012 | tozasertib 0.007 | [4] -0.026 | doramapimod -0.109 | ispinesib 0.065 | bafetinib -0.061 | [5] -0.004 | nilotinib -0.002 | [6] 0.01 | dasatinib 0.041 | [7] -0.02 | [8] 0.042 | [9] 0.013 | tipifarnib -0.009 | mubritinib 0.02

SLC38A1 (UniProt Q9H2H9)
inactive: [1] 0.014 | crizotinib 0.136 | [2] 0.109 | [3] 0 | duvelisib 0.028 | gandotinib -0.13 | tozasertib 0.005 | [4] -0.074 | doramapimod 0.027 | ispinesib -0.038 | bafetinib 0.004 | [5] 0.002 | nilotinib 0.04 | [6] -0.023 | dasatinib 0.067 | [7] 0.001 | [8] -0.007 | [9] -0.011 | tipifarnib -0.009 | mubritinib 0.047

SLC30A1 (UniProt Q9Y6M5)
inactive: [1] 0.035 | crizotinib 0.104 | [2] 0.115 | [3] -0.096 | duvelisib 0.081 | gandotinib -0.005 | tozasertib -0.041 | [4] -0.01 | doramapimod -0.001 | ispinesib 0.123 | bafetinib 0.027 | [5] -0.05 | nilotinib 0.015 | [6] -0.024 | dasatinib 0.059 | [7] -0.023 | [8] -0.007 | [9] -0.034 | tipifarnib 0.096 | mubritinib 0.041

SLC3A2 isoform 3 (UniProt P08195)
inactive: [1] 0.008 | crizotinib 0.074 | [2] 0.047 | [3] -0.133 | duvelisib 0.026 | gandotinib 0.021 | tozasertib -0.039 | [4] -0.045 | doramapimod 0.003 | ispinesib 0.156 | bafetinib -0.017 | [5] 0.011 | nilotinib 0.048 | [6] 0 | dasatinib 0.017 | [7] 0.001 | [8] 0.038 | [9] -0.04 | tipifarnib -0.019 | mubritinib 0.016

Looked up one by one from the entries so far (two):
SLC25A31 (UniProt Q9H0C2)
inactive: [1] -0.038 | crizotinib 0.057 | [2] -0.02 | [3] -0.107 | duvelisib 0.004 | gandotinib -0.012 | tozasertib 0.007 | [4] -0.026 | doramapimod -0.109 | ispinesib 0.065 | bafetinib -0.061 | [5] -0.004 | nilotinib -0.002 | [6] 0.01 | dasatinib 0.041 | [7] -0.02 | [8] 0.042 | [9] 0.013 | tipifarnib -0.009 | mubritinib 0.02

SLC30A1 (UniProt Q9Y6M5)
inactive: [1] 0.035 | crizotinib 0.104 | [2] 0.115 | [3] -0.096 | duvelisib 0.081 | gandotinib -0.005 | tozasertib -0.041 | [4] -0.01 | doramapimod -0.001 | ispinesib 0.123 | bafetinib 0.027 | [5] -0.05 | nilotinib 0.015 | [6] -0.024 | dasatinib 0.059 | [7] -0.023 | [8] -0.007 | [9] -0.034 | tipifarnib 0.096 | mubritinib 0.041

(continued)

SLC25A5 (UniProt P05141)
inactive: [1] -0.009 | crizotinib 0.183 | [2] 0.011 | [3] -0.191 | duvelisib 0.005 | gandotinib -0.055 | tozasertib 0.074 | [4] -0.014 | doramapimod -0.023 | ispinesib 0.128 | bafetinib -0.003 | [5] 0.017 | nilotinib 0.05 | [6] 0.006 | dasatinib 0.015 | [7] 0.027 | [8] 0.153 | [9] -0.046 | tipifarnib 0 | mubritinib -0.006

SLC25A46 (UniProt Q96AG3)
inactive: [1] 0.05 | crizotinib 0.13 | [2] 0.035 | [3] 0.008 | duvelisib 0.124 | gandotinib -0.06 | tozasertib 0.05 | [4] -0.055 | doramapimod -0.046 | ispinesib -0.042 | bafetinib -0.025 | [5] -0.014 | nilotinib 0.012 | [6] 0 | dasatinib 0.098 | [7] -0.012 | [8] 0.023 | [9] -0.005 | tipifarnib 0.011 | mubritinib 0.075

SLC10A4 (UniProt Q96EP9)
inactive: [1] 0.004 | crizotinib 0.122 | [2] -0.08 | [3] 0.013 | duvelisib 0.07 | gandotinib -0.078 | tozasertib 0.01 | [4] -0.047 | doramapimod 0 | ispinesib -0.569 | bafetinib -0.039 | [5] -0.084 | nilotinib -0.409 | [6] 0.078 | dasatinib 0.099 | [7] -0.166 | [8] 0.096 | [9] -0.007 | tipifarnib 0.109 | mubritinib 0.044

SLC7A5 (UniProt Q01650)
inactive: [1] -0.023 | crizotinib 0.062 | [2] 0.039 | [3] -0.161 | duvelisib 0.05 | gandotinib -0.065 | tozasertib 0.004 | [4] -0.035 | doramapimod 0.027 | ispinesib 0.03 | bafetinib 0.026 | [5] -0.017 | nilotinib 0.064 | [6] -0.028 | dasatinib 0.05 | [7] 0.003 | [8] 0.053 | [9] 0 | tipifarnib -0.034 | mubritinib 0.031

SLC35A2 isoform 4 (UniProt P78381)
inactive: [1] 0.016 | crizotinib 0.033 | [2] 0.114 | [3] -0.069 | duvelisib 0.038 | gandotinib -0.02 | tozasertib -0.26 | [4] 0.035 | doramapimod 0.044 | ispinesib 0.026 | bafetinib -0.047 | [5] -0.145 | nilotinib 0.085 | [6] 0.003 | dasatinib -0.214 | [7] -0.04 | [8] 0.061 | [9] -0.04 | tipifarnib 0.08 | mubritinib 0.026

SLC38A5 (UniProt Q8WUX1)
inactive: [1] 0.073 | crizotinib 0.015 | [2] 0.045 | [3] -0.118 | duvelisib 0.073 | gandotinib -0.119 | tozasertib -0.04 | [4] -0.071 | doramapimod 0.004 | ispinesib 0.086 | bafetinib 0.062 | [5] -0.036 | nilotinib 0.002 | [6] -0.017 | dasatinib 0.044 | [7] 0.001 | [8] 0.048 | [9] -0.071 | tipifarnib -0.018 | mubritinib 0.031

SLC4A1 (UniProt P02730)
inactive: [1] 0.052 | crizotinib -0.039 | [2] 0.062 | [3] -0.011 | duvelisib 0.056 | gandotinib -0.053 | tozasertib -0.111 | [4] 0.01 | doramapimod 0.149 | ispinesib -0.062 | bafetinib -0.195 | [5] 0.034 | nilotinib -0.099 | [6] 0.008 | dasatinib 0.035 | [7] 0.038 | [8] 0.041 | [9] -0.005 | tipifarnib 0.014 | mubritinib 0.028

SLC25A17 (UniProt O43808)
inactive: [1] 0.023 | crizotinib 0.071 | [2] 0.002 | [3] -0.127 | duvelisib -0.066 | gandotinib 0.024 | tozasertib 0.024 | [4] 0.008 | doramapimod 0.006 | ispinesib 0.052 | bafetinib 0.022 | [5] 0.032 | nilotinib 0.025 | [6] -0.015 | dasatinib -0.016 | [7] 0.003 | [8] 0.038 | [9] -0.002 | tipifarnib -0.056 | mubritinib 0.038

SLC25A1 (UniProt P53007)
inactive: [1] 0.011 | crizotinib 0.051 | [2] 0.036 | [3] -0.051 | duvelisib -0.041 | gandotinib 0.004 | tozasertib -0.015 | [4] -0.002 | doramapimod -0.015 | ispinesib 0.045 | bafetinib -0.033 | [5] 0.042 | nilotinib -0.044 | [6] 0.029 | dasatinib 0.035 | [7] -0.013 | [8] 0.003 | [9] -0.017 | tipifarnib -0.016 | mubritinib 0.001

SLC25A37 (UniProt Q9NYZ2)
inactive: [1] 0.038 | crizotinib -0.056 | [2] -0.093 | [3] -0.092 | duvelisib -0.028 | gandotinib -0.048 | tozasertib -0.015 | [4] -0.064 | doramapimod 0.151 | ispinesib 0.046 | bafetinib -0.043 | [5] 0.066 | nilotinib 0.004 | [6] -0.014 | dasatinib 0.03 | [7] 0.007 | [8] 0.082 | [9] -0.061 | tipifarnib 0.029 | mubritinib -0.008
